Experimental data: PubChem BioAssay AID504791 (Drosophila RNAi Screening Center, 2011)

- Assay: 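Genes of the fly required for silencing by miRNA, siRNA or endo-siRNA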 (primary screen)
- System: Drosophila S2-derived reporter cells
- Reagent: long dsRNA against Drosophila genes, about 150-250 ng dsRNA per well (siRNA assay); about 80-120 ng (miRNA assay)
- Duration: about 5 days (siRNA assay); about 4 days (miRNA assay)
- Conditions: copper sulfate induction of reporters: 25 µM (siRNA assay); 200 mM stated (miRNA assay), 1-2 days before reading
- Detection: 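Dual luciferase assay: Renilla to firefly signal ratio in each well, scaled to the mean ratio of its plate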
- Reading the numbers: siRNA reporter hit score: higher = 3 marks a strong hit with raised ratio; -3 a strong hit with lowered ratio
- Active means: 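First-pass picks had plate-scaled ratios over 1.5 for the siRNA assay, over 1.6 for the miRNA assay, or under 0.6; two distinct dsRNAs had to score alike on retest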
The screen tested about 23,000 reagents; shown is an unselected part of those that have a named target and a result. Of all reagents, 199 (0.86%) are marked active. 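Plate-scaled ratios behind the calls are not deposited; printed light signals are raw; many rows marked increased or decreased are still called inactive.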 Names joined by + are all predicted targets of the reagent. No sequences are given here.

target,dsRNA,siRNA reporter hit score,stable siRNA reporter change,miRNA reporter change,"stable assay Renilla, run 1 (luminescence)","stable assay firefly, run 1 (luminescence)",call
CG13251,DRSC11699,,,,6975,3.65e5,inactive
TMEM216 + CG11760,DRSC14375,,,,8858,6.44e5,inactive
CG45002,DRSC20144,,,,3671,2.94e5,inactive
Sbat,DRSC00160,,,,5528,3.56e5,inactive
Tm1,DRSC13082,,,,3704,3.07e5,inactive
Tm1,DRSC13083,,,,3864,4.09e5,inactive
Tm1,DRSC16886,,,,8093,4.74e5,inactive
CG6149,DRSC10593,,,,7027,3.86e5,inactive
unpg,DRSC07713,,,,6396,3.57e5,inactive
snu,DRSC16589,,,,7981,3.99e5,inactive
SdhC,DRSC16088,,,,5550,4.05e5,inactive
BtbVII,DRSC08151,,,,3623,2.70e5,inactive
BtbVII,DRSC08415,,,,7983,4.82e5,inactive
toy,DRSC17222,,reporter ratio lowered past the hit cutoff,,3964,4.33e5,inactive
Arc2,DRSC06436,,,,6999,4.70e5,inactive
ClC-b,DRSC07220,,,,5927,3.21e5,inactive
loh,DRSC01122,,,,5620,4.59e5,inactive
loh,DRSC02943,,,,6463,3.73e5,inactive
Dnai2,DRSC10575,,,,6054,4.27e5,inactive
CG42591,DRSC08905,,,,4755,4.20e5,inactive
CG11686,DRSC14350,,,,6354,3.74e5,inactive
LamC,DRSC07453,,,,7950,4.12e5,inactive
CG8531,DRSC07209,,,,8449,4.56e5,inactive
CG32344,DRSC08578,,,,8250,3.12e5,inactive
CG8861,DRSC12731,,,,5900,3.58e5,inactive
CG8861,DRSC16449,,,,6111,4.58e5,inactive
Dpy-30L2,DRSC08205,,,,6146,3.89e5,inactive
Ugt37A3,DRSC15937,,,,7174,4.46e5,inactive
CG42594,DRSC18053,3,reporter ratio raised past the hit cutoff,,4668,1.47e5,inactive
CG42594,DRSC18408,,,,5991,2.79e5,inactive
CG42594,DRSC22978,,,,4311,4.12e5,inactive
CG14989,DRSC08448,,,,9001,5.69e5,inactive
Trf,DRSC03462,,,,7422,3.77e5,inactive
CG1371,DRSC06409,,,,7794,4.07e5,inactive
CG15130,DRSC02430,,,,8284,4.86e5,inactive
Sec20,DRSC12295,,,,6499,3.91e5,inactive
vari,DRSC03202,,,,6691,3.82e5,inactive
CG1572,DRSC19686,,,reporter ratio lowered past the hit cutoff,8642,6.11e5,inactive
Ugt302E1,DRSC15635,,,,6458,3.79e5,inactive
Lcp65Ae,DRSC11212,,,,8774,6.00e5,inactive
CG10343,DRSC02041,,,,7026,5.97e5,inactive
CG6900 (retired record),DRSC20018,,,,5959,3.72e5,inactive
Dnaaf6,DRSC10473,,,,8886,4.18e5,inactive
CG5611,DRSC15843,,,,7341,6.40e5,inactive
Neurochondrin,DRSC12580,,,,7731,4.08e5,inactive
CG33722 + CG18749,DRSC12674,,,,5991,4.16e5,inactive
CG33722 + CG18749,DRSC15386,,,,7303,5.01e5,inactive
GlyRS,DRSC10711,,,,8124,2.70e5,inactive
JIL-1,DRSC11200,,,,5771,4.48e5,inactive
CG2574,DRSC19862,,,,5823,4.75e5,inactive
GCC88,DRSC14264,,,,6496,3.99e5,inactive
Nmd3,DRSC18687,,,,8821,4.89e5,inactive
Nmd3,DRSC22834,,,,3475,4.17e5,inactive
chrb,DRSC11335,,,,4643,3.84e5,inactive
CG5111,DRSC15717,,,,6339,3.41e5,inactive
CG34436,DRSC15164,,,,7163,4.34e5,inactive
CG13177,DRSC06303,,,,5423,3.81e5,inactive
Gcn2,DRSC16678,,,,8403,4.64e5,inactive
corn,DRSC11021,,,,8567,4.77e5,inactive
corn,DRSC21943,,,,8624,5.53e5,inactive
CG11693,DRSC14353,,,,7570,4.04e5,inactive
flw,DRSC17992,,,,6016,5.66e5,inactive
flw,DRSC18774,,,,6942,6.78e5,inactive
Psi,DRSC07519,-3,reporter ratio raised past the hit cutoff,reporter ratio raised past the hit cutoff,11690,2.95e5,active
srp,DRSC13125,,,,3624,4.76e5,inactive
srp,DRSC17068,,,,3627,2.12e5,inactive
srp,DRSC23166,,,,4740,4.24e5,inactive
Pex11c,DRSC14677,,,,6939,3.47e5,inactive
CG8252,DRSC07126,,,,7742,3.39e5,inactive
CG42615,DRSC05121,,,,4563,4.94e5,inactive
ru,DRSC08258,,,,6946,3.53e5,inactive
Acp24A4,DRSC22352,,,,8772,6.17e5,inactive
Clk,DRSC11117,,,,5906,3.09e5,inactive
CG13501,DRSC04146,,,,6792,3.35e5,inactive
scro,DRSC17099,,,,8675,5.22e5,inactive
scro,DRSC17102,,,,6495,5.05e5,inactive
Ccm3,DRSC15711,,reporter ratio lowered past the hit cutoff,,6404,5.93e5,inactive
CG2938,DRSC18243,,,,8174,5.83e5,inactive
Rtel1,DRSC18343,,,,5862,3.27e5,inactive
CG14654 (retired record),DRSC12240,,,,6624,4.46e5,inactive
ort,DRSC16240,,,,7914,3.31e5,inactive
CG16815,DRSC02521,,,,7640,3.87e5,inactive
CG34409,DRSC14577,,,,6987,3.81e5,inactive
CG34409,DRSC21667,,,,9643,5.24e5,inactive
Zip99C,DRSC16320,,,,7499,3.74e5,inactive
CG8420,DRSC16418,,,,6464,4.67e5,inactive
CG31522,DRSC12005,,,,4912,4.03e5,inactive
CG3746,DRSC04412,,,,5843,3.33e5,inactive
CG13972,DRSC14715,,,,6422,5.50e5,inactive
COX5B,DRSC02115,,,,6906,5.88e5,inactive
COX2 (retired record),DRSC21276,,,,6427,3.50e5,inactive
CG32708,DRSC18411,,,,5012,4.12e5,inactive
CG10477,DRSC09732,,,,7826,5.19e5,inactive
Cpr49Ad,DRSC07284,,,,5738,2.80e5,inactive
CG18537,DRSC06764,,,,7849,3.47e5,inactive
Cda5,DRSC00003,,,,4447,3.36e5,inactive
Cda5,DRSC00529,,,,8635,4.50e5,inactive
Cda5,DRSC00532,,,,8019,3.84e5,inactive
Cda5,DRSC21330,,,,9598,4.57e5,inactive
CG11417,DRSC18581,,,,8739,5.69e5,inactive
CG1138,DRSC12530,,,,6594,3.99e5,inactive
CG31275,DRSC16919,,,,7861,4.79e5,inactive
Asph,DRSC06783,,,,6306,3.78e5,inactive
Asph,DRSC07171,,,,8667,3.65e5,inactive
CG33090,DRSC01908,,,,7183,1.52e6,inactive
mirr,DRSC11369,,,reporter ratio lowered past the hit cutoff,7342,4.78e5,inactive

Active calls, of those listed so far:
target,dsRNA,siRNA reporter hit score,stable siRNA reporter change,miRNA reporter change,"stable assay Renilla, run 1 (luminescence)","stable assay firefly, run 1 (luminescence)",call
Psi,DRSC07519,-3,reporter ratio raised past the hit cutoff,reporter ratio raised past the hit cutoff,11690,2.95e5,active
